Measurements from PMC6094399, “New tools for carbohydrate sulfation analysis: heparan sulfate 2-O-sulfotransferase (HS2ST) is a target for small-molecule protein kinase inhibitors” (Biochemical Journal, 2018).

Biological target: T1, HS2ST (Gallus gallus, UniProt Q76KB1)
T1 construct: made in house; host or cells: Escherichia coli Rosetta-gami (DE3), modified pMAL-c2x plasmid
T1 sequence (Q76KB1 69-356): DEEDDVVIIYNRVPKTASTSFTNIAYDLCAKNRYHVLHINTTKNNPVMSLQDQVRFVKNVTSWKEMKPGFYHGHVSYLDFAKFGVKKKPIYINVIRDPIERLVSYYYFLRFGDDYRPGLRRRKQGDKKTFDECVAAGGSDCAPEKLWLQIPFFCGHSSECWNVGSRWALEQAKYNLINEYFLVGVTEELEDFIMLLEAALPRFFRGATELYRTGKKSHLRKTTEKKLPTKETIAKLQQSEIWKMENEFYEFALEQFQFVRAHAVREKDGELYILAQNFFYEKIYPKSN
Assay: DSF thermal shift/stability assay of MBP-HS2ST
Assay type: binding, Chicken
Details: 5 μM MBP-HS2ST; result in words

SMILES: Nc1ncnc2c1ncn2[C@@H]1O[C@H](COP(=O)(O)OS(=O)(=O)O)[C@@H](O)[C@H]1O [APS, adenosine 5′-phosphosulfate]
- thermal stabilisation of HS2ST (DSF): did not induce HS2ST stabilisation
